In article doi:10.1101/134304:
These are yes or no findings as the source states them, for the method shown. Binding seen in cells or lysates may run through a third protein. Some binding calls cover weakened binding; strength is not graded here. Where a sequence is shown, tags or fusion partners need not be part of it.

Sequences of proteins named here, by UniProt entry; tags and fusion partners are left off.
UniProt A8DY81: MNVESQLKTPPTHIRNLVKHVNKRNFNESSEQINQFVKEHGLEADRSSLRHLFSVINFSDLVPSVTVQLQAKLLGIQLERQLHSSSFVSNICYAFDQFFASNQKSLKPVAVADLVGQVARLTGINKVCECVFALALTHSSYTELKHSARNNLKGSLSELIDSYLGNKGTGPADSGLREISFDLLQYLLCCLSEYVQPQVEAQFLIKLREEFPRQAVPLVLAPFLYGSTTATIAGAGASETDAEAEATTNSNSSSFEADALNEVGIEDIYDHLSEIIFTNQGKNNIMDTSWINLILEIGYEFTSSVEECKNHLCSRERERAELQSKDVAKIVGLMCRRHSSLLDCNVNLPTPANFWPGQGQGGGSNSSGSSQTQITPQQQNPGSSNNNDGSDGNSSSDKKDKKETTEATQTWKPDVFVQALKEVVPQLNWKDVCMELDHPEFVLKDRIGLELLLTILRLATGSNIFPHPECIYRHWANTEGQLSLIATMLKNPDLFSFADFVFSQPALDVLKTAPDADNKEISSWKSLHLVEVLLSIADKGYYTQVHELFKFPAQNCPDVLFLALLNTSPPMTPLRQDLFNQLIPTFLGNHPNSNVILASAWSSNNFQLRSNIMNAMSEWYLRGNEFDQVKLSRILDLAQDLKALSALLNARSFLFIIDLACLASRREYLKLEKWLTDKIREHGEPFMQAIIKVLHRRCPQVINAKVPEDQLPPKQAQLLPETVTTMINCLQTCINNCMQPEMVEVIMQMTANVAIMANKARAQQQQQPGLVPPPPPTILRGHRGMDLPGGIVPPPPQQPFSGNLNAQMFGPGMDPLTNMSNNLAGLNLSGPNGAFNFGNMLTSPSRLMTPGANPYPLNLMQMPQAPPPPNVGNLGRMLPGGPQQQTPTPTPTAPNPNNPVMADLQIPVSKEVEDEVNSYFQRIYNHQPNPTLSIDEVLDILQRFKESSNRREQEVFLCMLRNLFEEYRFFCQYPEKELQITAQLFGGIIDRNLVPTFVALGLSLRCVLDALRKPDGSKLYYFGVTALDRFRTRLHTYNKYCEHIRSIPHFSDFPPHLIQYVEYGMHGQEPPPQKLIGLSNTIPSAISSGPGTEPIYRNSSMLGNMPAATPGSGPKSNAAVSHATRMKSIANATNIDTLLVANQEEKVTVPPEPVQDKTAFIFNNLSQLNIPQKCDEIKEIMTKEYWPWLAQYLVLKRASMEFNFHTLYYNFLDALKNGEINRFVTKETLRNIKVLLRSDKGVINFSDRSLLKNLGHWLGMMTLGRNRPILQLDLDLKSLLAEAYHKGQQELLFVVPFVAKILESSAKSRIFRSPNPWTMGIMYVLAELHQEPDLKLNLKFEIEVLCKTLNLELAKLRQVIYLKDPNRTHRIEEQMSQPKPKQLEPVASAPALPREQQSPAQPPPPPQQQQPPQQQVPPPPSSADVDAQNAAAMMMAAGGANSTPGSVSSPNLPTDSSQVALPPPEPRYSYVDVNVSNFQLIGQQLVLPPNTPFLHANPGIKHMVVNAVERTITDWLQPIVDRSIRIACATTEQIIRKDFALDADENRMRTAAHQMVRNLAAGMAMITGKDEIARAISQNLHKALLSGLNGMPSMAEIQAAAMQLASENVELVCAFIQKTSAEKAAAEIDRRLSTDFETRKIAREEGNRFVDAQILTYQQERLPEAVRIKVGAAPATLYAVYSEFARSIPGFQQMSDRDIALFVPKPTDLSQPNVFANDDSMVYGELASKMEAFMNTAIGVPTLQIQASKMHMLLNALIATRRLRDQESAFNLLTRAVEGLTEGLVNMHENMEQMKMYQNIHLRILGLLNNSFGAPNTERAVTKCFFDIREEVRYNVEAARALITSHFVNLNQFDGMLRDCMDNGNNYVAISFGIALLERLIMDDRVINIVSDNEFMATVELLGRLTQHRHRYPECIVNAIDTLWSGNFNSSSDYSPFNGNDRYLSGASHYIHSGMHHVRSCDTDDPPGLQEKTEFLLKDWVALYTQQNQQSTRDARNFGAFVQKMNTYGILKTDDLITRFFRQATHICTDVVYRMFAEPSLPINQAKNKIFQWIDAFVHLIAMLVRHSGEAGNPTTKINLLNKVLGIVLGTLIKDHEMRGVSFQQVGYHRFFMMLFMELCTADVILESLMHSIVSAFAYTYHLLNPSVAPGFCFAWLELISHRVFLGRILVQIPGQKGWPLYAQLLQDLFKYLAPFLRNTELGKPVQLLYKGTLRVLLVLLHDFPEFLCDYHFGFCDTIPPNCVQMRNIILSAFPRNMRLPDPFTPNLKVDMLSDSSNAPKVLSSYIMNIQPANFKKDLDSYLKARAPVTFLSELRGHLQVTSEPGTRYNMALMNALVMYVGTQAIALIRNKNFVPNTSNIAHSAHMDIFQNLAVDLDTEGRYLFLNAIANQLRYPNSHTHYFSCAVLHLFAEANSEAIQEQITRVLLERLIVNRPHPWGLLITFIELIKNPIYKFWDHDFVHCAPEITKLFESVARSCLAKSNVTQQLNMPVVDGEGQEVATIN

Target: T1, GFP-Aub (Aubergine) (Drosophila) (UniProt O76922)
T1 sequence: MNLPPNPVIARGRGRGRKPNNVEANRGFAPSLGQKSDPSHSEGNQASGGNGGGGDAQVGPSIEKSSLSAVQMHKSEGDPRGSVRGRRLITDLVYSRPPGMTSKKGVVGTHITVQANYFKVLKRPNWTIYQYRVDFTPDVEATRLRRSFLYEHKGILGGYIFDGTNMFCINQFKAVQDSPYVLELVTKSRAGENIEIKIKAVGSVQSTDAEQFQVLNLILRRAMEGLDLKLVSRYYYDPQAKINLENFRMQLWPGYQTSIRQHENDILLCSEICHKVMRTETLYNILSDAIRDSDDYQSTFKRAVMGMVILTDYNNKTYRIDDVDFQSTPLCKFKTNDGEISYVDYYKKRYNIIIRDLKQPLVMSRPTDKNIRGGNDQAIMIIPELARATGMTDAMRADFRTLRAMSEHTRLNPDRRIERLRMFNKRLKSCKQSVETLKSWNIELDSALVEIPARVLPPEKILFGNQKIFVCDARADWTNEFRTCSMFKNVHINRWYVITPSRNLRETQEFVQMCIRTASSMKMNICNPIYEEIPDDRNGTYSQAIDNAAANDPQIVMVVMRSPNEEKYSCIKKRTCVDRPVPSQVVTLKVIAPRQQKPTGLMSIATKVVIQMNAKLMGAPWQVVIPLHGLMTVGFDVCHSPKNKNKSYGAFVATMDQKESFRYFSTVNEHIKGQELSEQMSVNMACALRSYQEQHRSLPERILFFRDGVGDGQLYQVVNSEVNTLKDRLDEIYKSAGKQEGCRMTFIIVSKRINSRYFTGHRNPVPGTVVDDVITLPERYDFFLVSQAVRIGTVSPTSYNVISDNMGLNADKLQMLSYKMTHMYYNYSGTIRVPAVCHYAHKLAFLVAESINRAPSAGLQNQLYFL
Test: co-IP

binding: binds
Substance: NOT1 (subunit of the CCR4-NOT deadenylation complex) (from UniProt A8DY81 1-2505)
